Values of other authors as cited in US7067248B2 (priority 2002, dated 2006).
At least one compound was matched to its structure with a doubt left.

Legend:
P4a = details: cited from earlier work
VV = details: cited from earlier work

In the case of CO[C@H]1/C=C/O[C@@]2(C)Oc3c(C)c(O)c4c(O)c(c(/C=N/N5CCN(C)CC5)c(O)c4c3C2=O)NC(=O)/C(C)=C\C=C\[C@H](C)[C@H](O)[C@@H](C)[C@@H](O)[C@@H](C)[C@H](OC(C)=O)[C@@H]1C [rifampicin], the “Conversion of precursor P4a into 4a” value (P4a) is listed as “specifically inhibited” and the “Phenotype of VV replication” value (VV) is listed as “abortive-late phenotype”.
